# Assay results published in PubChem BioAssay AID1347423 (Functional Genomics Laboratory (NCATS/FGL), 2020).
# About 210 (0.4%) of roughly 52,000 sequences were called active.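 Rule for the calls: active = gene whose silencing raises cell survival under the drug, median off-target-corrected z-score across its silencing RNAs 2 or more; inactive = the rest.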 Some of the results follow.
# Assay: Resistance to Poly (ADP-Ribose) Polymerase inhibitor: Gene Identification via Genome-wide siRNA Screen
# Conditions: mouse BRCA2 R2336H ES cells, olaparib, CellTiter-Glo viability; active compounds read high
# In short: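 Genome-wide siRNA screen (3 siRNAs/gene, 20 nM) in mouse ES cells carrying hypomorphic BRCA2 R2336H; olaparib 500 nM added 48 h post-transfection, CellTiter-Glo viability 72 h later. Normalized to plate-median negative control; MAD z-scores, gene median, seed-adjusted.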
row,Sequence,z-score
1,GAGUUAAAGGUAAAAAUGGTT against Klra3,inactive: -0.337
2,CCUAAUCCUGAUAAUUCCATT against 9130404D14Rik,inactive: -1.31
3,GGGAUGGAAACCCUGGAUCTT against Col3a1,inactive: -1.38
4,CCUCUUAACAUCUCAAUACTT against Dio2,inactive: -0.083
5,GGAAUCUGAUCUUAACAUCTT against Odz1,inactive: -0.231
6,GGCCUUUUUGUUUAUGCUATT against Zan,inactive: -0.085
7,CGUGGAGUAAGGAGAAUAUTT against 5930412E23Rik,inactive: -2.7
8,GGCAACAUGAAGACUUUGUTT against Snx5,inactive: -1.53
9,GGGUGUCAUACUGUCCCAUTT against Olfr616,inactive: -0.149
10,GGAAGAGGUAAAUGACAACTT against Slco6b1,inactive: 0.642
11,GCAGCAUGCCUAAAUUUGGTT against Fyb,inactive: 1.06
12,GCUAAAUACAGGAGAAAACTT against Rhox10,inactive: -0.868
13,GCGAUACCGUGCCAUGUUUTT against 1110033C18Rik,inactive: 1.46
14,UGCUGGUAGACCUAGUAGCTT against Olfr1137,inactive: -1.5
15,GGACAGAGUCAUUUGAUGUTT against 1110019C08Rik,inactive: -0.0114
16,GGAUAUCACCUACCUUCGATT against Dusp15,inactive: 0.323
17,GGCAGUCUACUUUACACGGTT against Prdm1,inactive: 2.21
18,GCCGGAAUACUGGAUACCGTT against Slitl2,inactive: -0.235
19,GGAACUCUGUUCUAUUCCUTT against Chek2,inactive: -0.057
20,GGAAAAACUACCAAGAGGATT against Dscr5,inactive: 1.3
21,CCCAGAGGUUCCCGUCAAUTT against Hmgb3,active: 1.9
22,GGCCCUUCAAGUGUGAUCUTT against Zfp319,inactive: 0.423
23,GGUGCUAUACGAAUACUUGTT against Stxbp5l,inactive: 0.0514
24,GGGUGUAGUUUUUGAGGAGTT against LOC226169,inactive: -0.159
25,GGCACCAUCUCCAUAAAAATT against Foxa3,inactive: 0.00362
26,GGGAUAAGCUUUACGAGCGTT against Purb,inactive: -0.412

row,Sequence,z-score
1,GCUGGUGAUCGUAGCCAAGTT against D17Wsu104e,inactive: -1.3
2,GGUGUAUCAAGAAACUAACTT against Eif2c3,inactive: -0.972
3,GGUGAAAGUCAACUUUGACTT against Scn5a,inactive: 1.96
4,GUGGGAAAUCAGUAUUUCCTT against AI467606,inactive: -0.616
5,GCCAAUACAGACCACCUGGTT against Rln3,inactive: 0.754
6,CCUUAUCCUGGGAAAAUCATT against Olfr266,inactive: 0.168
7,GGAAGUGUCUUUCAAGCCCTT against 1700029J07Rik,inactive: 0.72
8,GGUUUCAGGAAAGAAACAATT against Epb4.2,inactive: 1.15
9,GGCCAUGAAGAAGAUGUACTT against Stard10,inactive: -0.531
10,GGAGAGAAAGAAACCUAUUTT against Fmn2,inactive: -1.02
11,GGAUUGGAAAUGGCCACAGTT against 3000004N20Rik,inactive: 0.0252
12,GCUUAAGCAGUGAUAAUAATT against B230317F23Rik,inactive: -0.761
13,CCUUAGAAACACUCUUAUUTT against BC031901,inactive: 0.1
14,GGUAAAAAUGGAUUAGUCGTT against Cyp2j5,inactive: -0.37
15,GCUAACCAGUAACUUCGAATT against 4933401K09Rik,inactive: 1.35
16,GGCUGUUUUCCUGUGUAAGTT against Ppt1,inactive: 0.0471
17,GGAACUGGACUUAUUCCACTT against Wnt5b,inactive: -0.238
18,GGAGCUGUAAAGGCUACAATT against Sulf2-pending,inactive: 0.433
19,GCUGAUAAAUCUGAACUACTT against Dhrs7,inactive: 1.73
20,GGUGUGCAUCACCUUUGACTT against Lgals1,inactive: -0.315
21,GGUCUACGAGUUUAUUGCUTT against Phc1,inactive: 0.722
22,GCAGAAAGGCUGCUUCGAUTT against Tnfaip8l3,inactive: -0.277
23,GGACUACCACAGCCUCUUCTT against Pxn,inactive: 1.02
24,CCACUAGGAGUUUACUCCGTT against 4930563A03Rik,inactive: -1.22
25,GGUCUUGCAUGUCUCUGAGTT against 2900010D03Rik,inactive: -1.37
26,CCUGCUACCUGCUGUAUUATT against LOC245297,inactive: -1.54

row,Sequence,z-score
1,GGUGUACAGAUCUGUCUGGTT against Dkk1,inactive: 0.57
2,GCCUACCCGAGGAAACUUUTT against Spatc1,inactive: 0.497
3,CCAAGAACUACCGUGAGUATT against Uts2r,inactive: 1.74
4,GCGGGCUGUCGUUAUGAUGTT against Gpr103,inactive: -0.403
5,CGAACUUCAAGACUGUGAUTT against 4732496G21Rik,inactive: -1.34
6,CCUCAUUGAGUUUUGAAGATT against 6530401N04Rik,inactive: 0.814
7,GCGGUUCCAAGAUUGUUGUTT against Armc8,inactive: 0.548
8,GGUACAACAGACUAUGCAATT against Snai1,inactive: -0.0762
9,GGAUAAAGUUUAAGGAUGGTT against V1rb7,inactive: 0.279
10,GGCAUGUUACAUUUAUCAUTT against Cdkal1,inactive: 1.57
11,GGAACACAGAGUUAACUUATT against Ifi35,inactive: 0.0955
12,GCUUGACAAUAAAUCCCACTT against 4732418C07Rik,inactive: -0.483
13,GGAGCACAAAGACAUUUUUTT against Lrrn1,inactive: -0.127
14,GGCAAAGACACCCAAAAAUTT against Hcfc1,inactive: -0.864
15,GGUCAGAGCUCUGGACAAATT against Hsd3b1,inactive: -0.974
16,GGAUUUACCAGAGGAAAAUTT against Otub2,inactive: 0.178
17,GGUAACUGAAACUCAAUUATT against 2210012G02Rik,inactive: 1.13
18,GGUGAACUGGUCUACAACATT against Muc2,inactive: -2.79
19,GGAUGUGCCUCGGUUGGAUTT against Gulo,inactive: 0.2
20,GCAGAAACGACUUCGAAACTT against Cdc20,inactive: -0.356
21,CCUUAAUUUCGACAUGACUTT against Za20d2,inactive: 1.19
22,GGACGGUAAAGUGAAUCAUTT against Tas2r105,inactive: 1.17
23,CCAUUUACCCAUGCGGCUATT against Creb3l2,inactive: -1.95
24,GGGCAGAGUGGAGUAUCUGTT against Cbx4,inactive: 0.942
25,GCUCCUCGCACUCUUUUGGTT against Olfr551,inactive: 0.317
26,CCCACCUCAACAUGAGAACTT against Dfna5h,inactive: 0.556

row,Sequence,z-score
1,GGACAAAACAUCUUAGAUGTT against Amacr,inactive: 0.172
2,GGAAGAAUAUUGAGGAGAATT against Tnni2,inactive: -0.693
3,GGUAGUGCUUCUCAUAUUATT against Olfr1437,inactive: -1.01
4,GCUUGUGGUUUUUCACAUCTT against Mrgprb3,inactive: 1.81
5,GCCAUGACUAUGUUUUCCGTT against Siat7a,inactive: -0.355
6,GGAAUGAUGACUCCUCCUGTT against A530090P03Rik,inactive: -2.08
7,CGGAUUGAUCCUAAUGUAUTT against Igf1r,inactive: 1.31
8,CCGGCAGAAUAAGAAAGUATT against Tnrc15,inactive: -1.29
9,GGAGAUUAUAGCUCAAGAUTT against Bfsp1,inactive: 1.44
10,GUUUUGUUUAUUCAGCCAGTT against Olfr1002,inactive: 1.15
11,GGUGAAACGGGACAUGCAATT against 1200003O06Rik,inactive: -0.00921
12,GCUUGUAGAAACCUUUUUGTT against Tm4sf1,inactive: -0.817
13,GCCUCCAGUAUCAUAAUUGTT against Antxr2,inactive: 1.33
14,GGUUGUUGAAAAGUCUUUATT against Rasa2,inactive: 1.74
15,CCACCAUUUAACUCGGCCUTT against Prkaa1,inactive: 0.521
16,GGAAAUAUGAUAGAAUGCCTT against C87499,inactive: 0.994
17,GGAGAAAAACUUCUUGGUATT against Cd96,inactive: -0.0585
18,GGCAAUUUCACACUAAUCATT against 1110061O04Rik,inactive: 1.39
19,CCAUACAUAUAGACAAUCCTT against LOC278676,inactive: 0.742
20,CCUACAUCCUUACAUCAUUTT against 4921511C20Rik,inactive: 0.885
21,GUGCUGCGUGUGUCAAUGUTT against Asb11,inactive: -0.28
22,GGGCUCUGAGGAUACCAUUTT against Hck,inactive: -0.813
23,GCAUACAGCUCAACAGUCATT against Padi2,inactive: -0.374
24,GGAUAAGAUAGUGAAAGAATT against Uble1b,inactive: -3.08
25,GCCGAGAAUAGAAGACUCATT against 2610528A15Rik,inactive: -2.36
26,GCACAGUCAACUAACUGCGTT against Apom,inactive: 0.561

# Reformatted: entries from further up.
row	Sequence	z-score
2	GGAAGAAUAUUGAGGAGAATT against Tnni2	inactive: -0.693
3	GGUAGUGCUUCUCAUAUUATT against Olfr1437	inactive: -1.01
13	GCCUCCAGUAUCAUAAUUGTT against Antxr2	inactive: 1.33
17	GGAGAAAAACUUCUUGGUATT against Cd96	inactive: -0.0585
18	GGCAAUUUCACACUAAUCATT against 1110061O04Rik	inactive: 1.39

# Shown with tabs: part of the list above.
row	Sequence	z-score
15	GGUCAGAGCUCUGGACAAATT against Hsd3b1	inactive: -0.974
16	GGAUUUACCAGAGGAAAAUTT against Otub2	inactive: 0.178
